Publication PMC7650656
No constants are given. Whether binding was seen depends on the method and setting. Binding seen in cells or lysates may run through a third protein. Here binding means that the protein was enriched with, or labelled near, the bait; the list need not be complete. One block for each binder: values may come before it.

Legend:
[1] = target: OsRLCK311 C-terminus (ΔN) fused to 3xFlag (rice (Oryza sativa)); experiment: affinity purification with mass spectrometry; anti-Flag magnetic beads on lysates of 3-week-old transgenic Arabidopsis seedlings overexpressing OsRLCK311-ΔN or -FL with 3xFlag; wild-type extracts as negative control; LC-MS/MS
[2] = target: OsRLCK311 full-length protein fused to 3xFlag (rice (Oryza sativa)); experiment: as above

binding [1]: binds
binding [2]: binds
B1: Aquaporin AtPIP2;1 (endogenous) (protein, UniProt P43286 1-287)
chain: MAKDVEAVPGEGFQTRDYQDPPPAPFIDGAELKKWSFYRAVIAEFVATLLFLYITVLTVIGYKIQSDTDAGGVDCGGVGILGIAWAFGGMIFILVYCTAGISGGHINPAVTFGLFLARKVSLPRALLYIIAQCLGAICGVGFVKAFQSSYYTRYGGGANSLADGYSTGTGLAAEIIGTFVLVYTVFSATDPKRSARDSHVPVLAPLPIGFAVFMVHLATIPITGTGINPARSFGAAVIYNKSKPWDDHWIFWVGPFIGAAIAAFYHQFVLRASGSKSLGSFRSAANV

binding [1]: binds
binding [2]: binds
B2: GRF10 (GRF 14-3-3 protein) (protein, UniProt P48347 1-254)
chain: MENEREKQVYLAKLSEQTERYDEMVEAMKKVAQLDVELTVEERNLVSVGYKNVIGARRASWRILSSIEQKEESKGNDENVKRLKNYRKRVEDELAKVCNDILSVIDKHLIPSSNAVESTVFFYKMKGDYYRYLAEFSSGAERKEAADQSLEAYKAAVAAAENGLAPTHPVRLGLALNFSVFYYEILNSPESACQLAKQAFDDAIAELDSLNEESYKDSTLIMQLLRDNLTLWTSDLNEEGDERTKGADEPQDEN
